Some results were stated once for a whole list of compounds, not compound by compound.
Columns and labels:
[1] = In vitro metabolic stability, bovine liver S9; type: in vitro ADME; settings: bovine liver S9, after 30 minutes
[2] = In vitro metabolic stability, horse liver S9; type: in vitro ADME; settings: horse liver S9, after 30 minutes

C=CCSc1ncnc2c1ccn2[C@@H]1O[C@H](CO)[C@@H](O)[C@H]1O [FH15963, 4-S-allyl-N7-(β-D-ribofuranosyl)pyrrolo[2,3-d]pyrimidine]
parent compound remaining (metabolically stable) [1]: ≥ 50% | parent compound remaining (metabolically stable) [2]: ≥ 50%

OC[C@H]1O[C@@H](n2ccc3c(Sc4ccccc4)ncnc32)[C@H](O)[C@@H]1O [FH15967, 4-S-phenyl-N7-(β-D-ribofuranosyl)pyrrolo[2,3-d]pyrimidine]
parent compound remaining (metabolically stable) [1]: ≥ 50% | parent compound remaining (metabolically stable) [2]: ≥ 50%

CSc1ncnc2c1ccn2[C@@H]1O[C@H](CO)[C@@H](O)[C@H]1O [FH15961/CL5565]
parent compound remaining (metabolically stable) [1]: ≥ 50% | parent compound remaining (metabolically stable) [2]: ≥ 50%

Reference: patent publication US20250320245A1, “Nucleoside Analogues for the Treatment of Parasitic Infections” (Universiteit Antwerpen, priority 2021, published 2025)
